Measurements as given in patent US20170306048A1.
Results are given in words; binding and its absence hold for the method and conditions named. Some entries that bind do so weakly or less than the wild type.

By UniProt entry, the sequences of proteins in these tests, tags left out. Residues count along the entry.
UniProt P40763, residues 2-770: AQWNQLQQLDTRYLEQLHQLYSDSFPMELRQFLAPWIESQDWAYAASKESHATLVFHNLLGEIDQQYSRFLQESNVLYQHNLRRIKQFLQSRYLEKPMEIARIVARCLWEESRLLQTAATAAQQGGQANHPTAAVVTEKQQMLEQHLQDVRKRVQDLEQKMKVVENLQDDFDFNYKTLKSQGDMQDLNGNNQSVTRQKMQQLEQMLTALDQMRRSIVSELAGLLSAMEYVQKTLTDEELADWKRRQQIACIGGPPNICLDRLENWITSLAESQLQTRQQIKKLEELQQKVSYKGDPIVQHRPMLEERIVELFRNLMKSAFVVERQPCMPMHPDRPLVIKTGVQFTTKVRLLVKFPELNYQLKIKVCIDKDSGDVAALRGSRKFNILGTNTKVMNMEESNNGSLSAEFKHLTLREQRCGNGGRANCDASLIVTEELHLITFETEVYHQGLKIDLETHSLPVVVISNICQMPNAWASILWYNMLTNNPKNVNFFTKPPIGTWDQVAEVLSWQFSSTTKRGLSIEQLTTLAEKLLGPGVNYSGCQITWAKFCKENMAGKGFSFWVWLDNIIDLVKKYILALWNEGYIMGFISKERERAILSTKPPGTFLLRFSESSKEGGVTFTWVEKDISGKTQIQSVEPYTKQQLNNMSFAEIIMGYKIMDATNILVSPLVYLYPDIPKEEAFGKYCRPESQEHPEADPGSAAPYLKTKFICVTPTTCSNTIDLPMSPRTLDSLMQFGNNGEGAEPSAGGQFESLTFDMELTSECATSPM

How the values were obtained:
[1] = biological target: human STAT3, endogenous, in human cell lines (U251, MDA-MB-468, HeLa, MCF-10A, MCF-7, COLO205) (human) (UniProt P40763); assay: high throughput flow cytometry on permeabilised U251 cells
[2] = biological target: human STAT3, endogenous, in human cell lines (U251, MDA-MB-468, HeLa, MCF-10A, MCF-7, COLO205) (human) (UniProt P40763); assay: flow cytometry (HTFC) on permeabilised U251 cells, PE anti-human IgG

binding [1]: binds
binding [2]: binds
B1: ST3G12-PS antibody conjugate (compound 901) (antibody, V domains shown)
VH: QVQLVQSGAEVKKPGASVKVSCKASGYTFTSYYMHWVRQAPGQGLEWMGIINPSGGSTSYAQKFQGRVTMTRDTSTSTVYMELSSLRSEDTAVYYCARSDYVHSFDIWGQGTMVTVSS
VL: QPVLTQPPSASALLGASIKLTCTLSSEHSTYTVEWYQQRPGRSPQYIMNVKSDGSYNKGDGIPDRFMGSSSGADRYLTFSNLQSDDEAEYHCGESHRIDGQVGVVFGGGTKLTVL
